In article PMC5805366 one finds binding data, which are given here for five molecules.

These are yes or no findings as the source states them, for the method shown. For part of these data: Binding calls can cover weak binding; strength is not graded here. For part of these data: Sequences can lack the tags named with a protein. For part of these data: Binding seen in cells or lysates may run through a third protein.

The target in test [1] is T1, endogenous human Nmi (human (endogenous in U251 and human foreskin fibroblasts)) (UniProt Q13287).
T1 sequence: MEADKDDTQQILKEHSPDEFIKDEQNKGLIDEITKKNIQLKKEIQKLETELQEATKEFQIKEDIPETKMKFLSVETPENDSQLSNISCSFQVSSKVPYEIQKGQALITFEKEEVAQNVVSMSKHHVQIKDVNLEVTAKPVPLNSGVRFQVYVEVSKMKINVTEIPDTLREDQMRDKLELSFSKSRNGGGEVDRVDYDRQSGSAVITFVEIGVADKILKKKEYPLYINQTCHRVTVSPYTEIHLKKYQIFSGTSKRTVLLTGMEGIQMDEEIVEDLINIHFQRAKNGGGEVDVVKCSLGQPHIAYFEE
As to the kind of experiment: co-IP; cells containing pCMV-FLAG-UL23, as for U251-UL23 cells.

Test [2] deals with T2, FLAG-tagged human Nmi, full length (pCMV-FLAG-Nmi) (human) (UniProt Q13287).
T2 sequence: T1 sequence
Briefly: co-IP; HA-tagged UL23 and FLAG-tagged Nmi in HeLa cells.

In test [3] the target is T2, FLAG-tagged human Nmi, full length (pCMV-FLAG-Nmi) (human). Briefly: co-IP; U251 cells co-transfected with plasmids for HA- and FLAG-tagged proteins, harvested at 48 h; IP with anti-HA or anti-FLAG, blots with anti-HA and anti-FLAG.
Test [4] has as its target T3, FLAG-tagged UL70 protein of HCMV (human cytomegalovirus (HCMV)) (UniProt P17149).
T3 sequence: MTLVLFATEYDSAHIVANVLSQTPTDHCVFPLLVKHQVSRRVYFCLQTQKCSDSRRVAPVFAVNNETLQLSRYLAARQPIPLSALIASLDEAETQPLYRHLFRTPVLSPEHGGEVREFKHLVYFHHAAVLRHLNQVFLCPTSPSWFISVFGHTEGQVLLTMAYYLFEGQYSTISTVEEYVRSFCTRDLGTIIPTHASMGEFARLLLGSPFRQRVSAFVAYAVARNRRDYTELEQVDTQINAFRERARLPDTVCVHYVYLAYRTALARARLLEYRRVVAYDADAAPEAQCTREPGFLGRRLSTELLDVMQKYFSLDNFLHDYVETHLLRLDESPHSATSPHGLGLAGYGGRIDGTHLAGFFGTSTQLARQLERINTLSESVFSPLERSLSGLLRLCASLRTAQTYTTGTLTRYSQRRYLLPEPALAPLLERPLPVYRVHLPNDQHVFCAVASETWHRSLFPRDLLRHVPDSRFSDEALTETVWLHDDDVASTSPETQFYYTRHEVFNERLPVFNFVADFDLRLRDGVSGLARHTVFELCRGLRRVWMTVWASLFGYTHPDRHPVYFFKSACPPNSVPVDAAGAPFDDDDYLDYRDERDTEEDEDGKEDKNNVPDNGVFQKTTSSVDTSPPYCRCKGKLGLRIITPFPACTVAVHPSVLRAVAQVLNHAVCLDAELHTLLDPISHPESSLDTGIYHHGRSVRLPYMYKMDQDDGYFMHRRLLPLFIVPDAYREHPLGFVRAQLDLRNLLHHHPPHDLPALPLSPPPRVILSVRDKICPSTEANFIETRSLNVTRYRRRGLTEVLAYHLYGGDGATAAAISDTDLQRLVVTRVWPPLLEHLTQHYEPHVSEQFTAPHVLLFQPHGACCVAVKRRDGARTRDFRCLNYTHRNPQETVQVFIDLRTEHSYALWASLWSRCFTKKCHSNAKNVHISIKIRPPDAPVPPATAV
The description is as above.

The target in test [5] is T2, FLAG-tagged human Nmi, full length (pCMV-FLAG-Nmi) (human). Briefly: co-IP; HA-tagged UL23 and FLAG-tagged Nmi in HCMV-infected U251 cells.
The target of test [6] is T1, endogenous human Nmi (human (endogenous in U251 and human foreskin fibroblasts)). As to the kind of experiment: co-IP; IFN-γ-treated U251 cells infected with TowneBAC or the rescued viruses R-ΔUL23 and R-stop (MOI = 1) at 12 h post-treatment, lysates at 24-48 h postinfection; IP with anti-UL23, anti-Nmi or anti-STAT1.
For test [7] the target is unchanged. As to the kind of experiment: co-IP; IFN-γ-treated human foreskin fibroblasts infected with TowneBAC or the rescued viruses.
Test [8] has the same target. Briefly: co-IP; U251 cells infected with HCMV (MOI = 1), lysates at 48-72 h postinfection; IP with anti-UL23, anti-UL44 or anti-Nmi, blots for UL23, UL44 and Nmi.
The target in test [9] is HCMV UL23(129-284aa) fused with the GAL4 DNA-binding domain (pGBKT7-UL23(129-284aa)) (human cytomegalovirus (HCMV)). As to the kind of experiment: two-hybrid; binary test: yeast AH109 co-transformed with one BD and one AD plasmid; growth on SD-minus Trp/Leu/Ade/His and beta-gal filter lift.
Test [10] deals with HCMV UL23(1-178aa) fused with the GAL4 DNA-binding domain (pGBKT7-UL23(1-178aa)) (human cytomegalovirus (HCMV)). The test is described as above.
For test [11], the target named is FLAG-tagged HCMV UL23(129-284aa) (pCMV-FLAG-UL23(129-284aa)) (human cytomegalovirus (HCMV)). Briefly: co-IP; FLAG-tagged truncation constructs of Nmi or UL23 transfected into U251 cells.
The target of test [12] is FLAG-tagged HCMV UL23(1-178aa) (pCMV-FLAG-UL23(1-178aa)) (human cytomegalovirus (HCMV)). The description is as above.

As for “FLAG-tagged HCMV UL23, full length (pCMV-FLAG-UL23) (human cytomegalovirus (HCMV))”, in test [1], the binding entry is given as “binds”.

As for “HA-tagged HCMV UL23, full length (pCMV-HA-UL23) (human cytomegalovirus (HCMV))”, the binding result is given as “binds” in [2], “binds” in test [3], “no binding” in [4] and “binds” in test [5].

On to “native (untagged) UL23 expressed during HCMV infection (human cytomegalovirus (HCMV), TowneBAC)”, for which the binding entry in test [6], in test [7] and in test [8] was “binds” throughout.

B1: human Nmi, full length, fused with the GAL4 activation domain (pACT2-Nmi library clone; pGADT7-Nmi) (protein, UniProt Q13287 1-307)
chain: T1 sequence
On to B1, for which the values for the binding result in [9] and in test [10] were “binds” and “no binding”, respectively.

B2: Nmi as partner in the co-IP with truncated FLAG-tagged UL23 (protein, UniProt Q13287 1-307)
chain: T1 sequence
As for B2, the binding result in [11] was “binds”; in [12], “no binding”.
